According to publication PMC10462681:
No constants are given. Whether binding was seen depends on the method and setting. In cells and extracts the contact can be indirect. Some results given as binding are weak or reduced against the parent protein; the word gives no strength. Tags and fused reporters may be left off the sequences shown.

Amino acid sequences for entries named in this document (tags omitted). A change or cut given only in a name is not applied to a line headed by its entry. Chains listed by the source or under a name are the forms on record and can include a tag or linker. Residues count along the entry.
LRP4-HA, wild-type (full-length human LRP4), expressed on the surface of COS7 cells (O75096, residues 21-1905): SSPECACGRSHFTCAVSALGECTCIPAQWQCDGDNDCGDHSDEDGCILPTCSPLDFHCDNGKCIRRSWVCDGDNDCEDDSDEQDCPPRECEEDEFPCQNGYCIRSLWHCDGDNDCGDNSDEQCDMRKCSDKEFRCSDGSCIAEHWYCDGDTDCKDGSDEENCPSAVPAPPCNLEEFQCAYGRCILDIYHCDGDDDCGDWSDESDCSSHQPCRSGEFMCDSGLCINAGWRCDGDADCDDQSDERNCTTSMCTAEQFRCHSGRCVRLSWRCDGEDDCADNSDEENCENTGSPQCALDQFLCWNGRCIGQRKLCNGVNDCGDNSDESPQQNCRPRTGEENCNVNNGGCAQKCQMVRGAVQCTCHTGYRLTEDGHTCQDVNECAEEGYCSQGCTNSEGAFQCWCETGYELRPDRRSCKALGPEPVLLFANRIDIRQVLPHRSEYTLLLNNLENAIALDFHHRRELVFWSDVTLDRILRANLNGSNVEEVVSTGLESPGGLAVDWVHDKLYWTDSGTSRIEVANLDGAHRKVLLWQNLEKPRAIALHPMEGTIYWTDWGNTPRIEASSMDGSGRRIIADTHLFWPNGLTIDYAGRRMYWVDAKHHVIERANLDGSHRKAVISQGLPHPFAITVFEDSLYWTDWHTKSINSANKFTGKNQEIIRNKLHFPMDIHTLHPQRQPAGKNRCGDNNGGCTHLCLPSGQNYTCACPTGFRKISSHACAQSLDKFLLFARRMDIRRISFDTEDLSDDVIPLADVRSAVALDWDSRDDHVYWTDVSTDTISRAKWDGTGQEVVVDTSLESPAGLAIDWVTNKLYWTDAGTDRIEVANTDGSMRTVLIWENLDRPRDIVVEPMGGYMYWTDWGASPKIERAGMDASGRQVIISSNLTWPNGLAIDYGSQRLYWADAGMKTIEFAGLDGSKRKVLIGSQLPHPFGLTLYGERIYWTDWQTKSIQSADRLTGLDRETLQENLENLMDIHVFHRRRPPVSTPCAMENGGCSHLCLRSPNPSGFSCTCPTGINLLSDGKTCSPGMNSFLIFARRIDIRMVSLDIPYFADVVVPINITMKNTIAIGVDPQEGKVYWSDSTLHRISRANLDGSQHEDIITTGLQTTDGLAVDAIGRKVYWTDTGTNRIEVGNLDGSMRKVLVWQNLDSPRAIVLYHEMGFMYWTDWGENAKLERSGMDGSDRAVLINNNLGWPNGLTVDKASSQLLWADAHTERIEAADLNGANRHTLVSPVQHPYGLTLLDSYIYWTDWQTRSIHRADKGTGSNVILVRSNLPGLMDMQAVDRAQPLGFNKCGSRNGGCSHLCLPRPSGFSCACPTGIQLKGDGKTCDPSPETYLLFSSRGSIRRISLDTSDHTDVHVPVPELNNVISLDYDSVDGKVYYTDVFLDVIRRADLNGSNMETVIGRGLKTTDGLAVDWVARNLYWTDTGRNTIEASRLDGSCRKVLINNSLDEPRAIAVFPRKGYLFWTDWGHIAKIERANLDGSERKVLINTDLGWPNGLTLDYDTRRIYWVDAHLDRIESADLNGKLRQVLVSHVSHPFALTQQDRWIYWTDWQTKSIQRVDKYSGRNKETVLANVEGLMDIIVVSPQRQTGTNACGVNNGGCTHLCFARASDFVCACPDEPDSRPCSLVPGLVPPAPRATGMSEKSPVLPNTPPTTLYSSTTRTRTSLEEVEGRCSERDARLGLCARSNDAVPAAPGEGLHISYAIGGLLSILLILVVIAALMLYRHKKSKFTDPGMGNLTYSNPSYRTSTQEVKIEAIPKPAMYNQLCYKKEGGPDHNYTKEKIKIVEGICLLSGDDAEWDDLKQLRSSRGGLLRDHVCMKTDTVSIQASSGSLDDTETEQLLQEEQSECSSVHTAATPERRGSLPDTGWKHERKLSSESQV
LRP4-HA mutant p.Tyr607Cys (c.1820A > G; LRP4-Mut), expressed in HEK293T cells (O75096, form named): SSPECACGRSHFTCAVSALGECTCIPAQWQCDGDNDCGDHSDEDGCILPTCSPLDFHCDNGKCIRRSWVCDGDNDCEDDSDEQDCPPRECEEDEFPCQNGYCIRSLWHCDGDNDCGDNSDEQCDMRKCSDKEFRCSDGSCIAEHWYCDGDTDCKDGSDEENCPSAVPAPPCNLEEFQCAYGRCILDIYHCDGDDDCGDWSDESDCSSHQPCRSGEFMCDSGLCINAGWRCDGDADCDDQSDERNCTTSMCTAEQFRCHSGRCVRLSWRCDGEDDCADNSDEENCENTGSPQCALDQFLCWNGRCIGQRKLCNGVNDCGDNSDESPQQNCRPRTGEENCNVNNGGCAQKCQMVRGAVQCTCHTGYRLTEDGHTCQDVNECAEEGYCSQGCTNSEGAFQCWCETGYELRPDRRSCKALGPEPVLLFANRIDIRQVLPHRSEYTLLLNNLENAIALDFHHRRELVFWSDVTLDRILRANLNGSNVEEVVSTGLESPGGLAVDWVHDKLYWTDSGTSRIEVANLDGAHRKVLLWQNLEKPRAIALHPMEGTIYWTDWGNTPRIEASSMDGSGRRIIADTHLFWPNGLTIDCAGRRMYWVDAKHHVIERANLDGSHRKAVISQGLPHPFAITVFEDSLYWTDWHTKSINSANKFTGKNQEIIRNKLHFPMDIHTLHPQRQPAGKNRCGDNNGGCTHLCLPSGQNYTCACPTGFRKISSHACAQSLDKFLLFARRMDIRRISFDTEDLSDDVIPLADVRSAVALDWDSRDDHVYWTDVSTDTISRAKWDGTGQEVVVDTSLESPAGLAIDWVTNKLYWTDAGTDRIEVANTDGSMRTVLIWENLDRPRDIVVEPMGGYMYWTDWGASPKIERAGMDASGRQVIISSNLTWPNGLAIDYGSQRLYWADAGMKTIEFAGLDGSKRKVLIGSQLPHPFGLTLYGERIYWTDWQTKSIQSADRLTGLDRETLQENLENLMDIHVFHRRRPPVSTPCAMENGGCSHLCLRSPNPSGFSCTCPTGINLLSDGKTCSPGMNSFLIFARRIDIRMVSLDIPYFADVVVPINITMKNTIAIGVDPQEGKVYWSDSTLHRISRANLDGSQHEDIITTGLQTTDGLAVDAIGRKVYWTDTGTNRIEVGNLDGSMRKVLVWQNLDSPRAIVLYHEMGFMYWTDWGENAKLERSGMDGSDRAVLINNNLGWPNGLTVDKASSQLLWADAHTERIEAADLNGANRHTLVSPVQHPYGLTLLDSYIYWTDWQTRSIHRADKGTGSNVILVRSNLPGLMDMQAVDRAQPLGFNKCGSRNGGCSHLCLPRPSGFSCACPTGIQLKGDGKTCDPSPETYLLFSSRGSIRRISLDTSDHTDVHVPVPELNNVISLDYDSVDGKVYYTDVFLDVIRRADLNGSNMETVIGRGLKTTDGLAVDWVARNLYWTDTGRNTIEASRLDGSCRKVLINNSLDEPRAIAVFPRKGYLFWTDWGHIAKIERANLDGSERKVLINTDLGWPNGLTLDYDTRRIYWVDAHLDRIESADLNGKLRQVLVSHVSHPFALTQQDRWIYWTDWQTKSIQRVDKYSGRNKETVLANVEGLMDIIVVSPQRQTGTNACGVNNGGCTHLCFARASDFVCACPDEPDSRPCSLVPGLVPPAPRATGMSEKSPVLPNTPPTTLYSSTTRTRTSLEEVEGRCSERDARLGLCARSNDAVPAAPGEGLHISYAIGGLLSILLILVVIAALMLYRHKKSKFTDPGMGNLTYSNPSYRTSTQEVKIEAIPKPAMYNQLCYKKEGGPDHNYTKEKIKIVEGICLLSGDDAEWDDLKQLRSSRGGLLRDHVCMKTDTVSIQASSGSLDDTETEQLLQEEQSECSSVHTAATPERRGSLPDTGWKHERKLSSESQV

T1: MuSK-Flag (mouse muscle specific kinase) (mouse) (UniProt Q61006)
T1 sequence: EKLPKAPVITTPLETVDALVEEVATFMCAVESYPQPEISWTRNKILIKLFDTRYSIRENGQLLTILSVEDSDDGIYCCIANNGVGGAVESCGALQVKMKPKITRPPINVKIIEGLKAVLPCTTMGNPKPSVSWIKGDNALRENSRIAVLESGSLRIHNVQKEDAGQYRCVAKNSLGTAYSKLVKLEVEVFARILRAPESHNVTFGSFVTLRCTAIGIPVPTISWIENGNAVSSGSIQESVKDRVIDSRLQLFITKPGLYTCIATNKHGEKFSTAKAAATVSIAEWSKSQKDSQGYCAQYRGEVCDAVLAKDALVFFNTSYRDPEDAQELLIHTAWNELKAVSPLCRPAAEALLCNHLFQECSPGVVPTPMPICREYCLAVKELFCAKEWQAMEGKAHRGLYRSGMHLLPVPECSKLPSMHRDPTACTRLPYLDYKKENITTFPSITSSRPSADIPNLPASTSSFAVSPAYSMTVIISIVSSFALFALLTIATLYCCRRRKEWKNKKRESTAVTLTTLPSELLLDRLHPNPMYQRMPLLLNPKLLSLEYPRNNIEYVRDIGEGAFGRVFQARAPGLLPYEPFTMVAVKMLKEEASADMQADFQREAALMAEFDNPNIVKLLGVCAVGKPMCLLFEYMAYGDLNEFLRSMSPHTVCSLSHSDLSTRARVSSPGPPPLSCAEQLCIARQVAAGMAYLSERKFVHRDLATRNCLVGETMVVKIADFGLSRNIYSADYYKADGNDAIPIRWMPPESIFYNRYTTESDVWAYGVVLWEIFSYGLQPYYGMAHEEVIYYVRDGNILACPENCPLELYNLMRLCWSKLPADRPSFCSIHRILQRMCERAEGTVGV


Assays:
[1] = molecular target: T1, MuSK-Flag (mouse muscle specific kinase) (mouse); assay: co-IP; HEK293T cells co-transfected 24 h with MuSK-Flag and wild-type or mutant LRP4-HA (2 µg of each plasmid); immunoprecipitation with anti-HA or anti-Flag, western blot with anti-Flag or anti-HA
[2] = molecular target: LRP4-HA, wild-type (full-length human LRP4), expressed on the surface of COS7 cells (human) (UniProt O75096); assay: co-IP; co-culture immunoprecipitation: LRP4-HA on the surface of COS7 cells and Wnt11-Myc secreted by HEK293T cells, 24 h of co-culture, immunoprecipitation of LRP4-HA, western blot with anti-HA and anti-Myc; N = 3

binding [1] | binding [2] | Molecule
binds |  | LRP4-HA mutant p.Tyr607Cys (c.1820A > G; LRP4-Mut), expressed in HEK293T cells (from UniProt O75096 21-1905) (receptor)
binds |  | LRP4-HA, wild-type (full-length human LRP4, LDL receptor related protein 4), expressed in HEK293T cells (from UniProt O75096 21-1905)
 | binds | Wnt11-Myc (mouse Wnt11) (ligand, UniProt P48615 25-354) IKWLALSKTPAALALNQTQHCKQLEGLVSAQVQLCRSNLELMRTIVHAARGAMKACRRAFADMRWNCSSIELAPNYLLDLERGTRESAFVYALSAATISHTIARACTSGDLPGCSCGPVPGEPPGPGNRWGGCADNLSYGLLMGAKFSDAPMKVKKTGSQANKLMRLHNSEVGRQALRASLETKCKCHGVSGSCSIRTCWKGLQELQDVAADLKTRYLSATKVVHRPMGTRKHLVPKDLDIRPVKDSELVYLQSSPDFCMKNEKVGSHGTQDRQCNKTSNGSDSCDLMCCGRGYNPYTDRVVERCHCKYHWCCYVTCRRCERTVERYVCK
